The exact form of at least one protein or probe is not confirmed. For part of these data: The comparison behind a weaker result is the experiment's own reference, which may not be listed here. Protein sequences can lack the tags named with them. For part of these data: Results from cells or extracts need not show a direct contact. For part of these data: At least one verdict rests on a figure or table, not on a statement of the authors.
Assays:
[1] = target: T1, YTHDF1 (Active Motif #31608) (UniProt Q9BYJ9); assay: EMSA; settings: 0.64 uM YTHDF1, 250 nM RNA, positive control; m6A at positions 3, 9, 15, 22; EMSA: 50 mM Tris-HCl pH 7.5, 100 mM KCl, 2 mM MgCl2, 100 mM beta-mercaptoethanol, 0.1 mg/ml BSA, 30 min RT, 6% native gel in TBE; commercial protein; label: 5' Cy5, 3' biotin-TEG
T1 sequence (looked up, limits assumed): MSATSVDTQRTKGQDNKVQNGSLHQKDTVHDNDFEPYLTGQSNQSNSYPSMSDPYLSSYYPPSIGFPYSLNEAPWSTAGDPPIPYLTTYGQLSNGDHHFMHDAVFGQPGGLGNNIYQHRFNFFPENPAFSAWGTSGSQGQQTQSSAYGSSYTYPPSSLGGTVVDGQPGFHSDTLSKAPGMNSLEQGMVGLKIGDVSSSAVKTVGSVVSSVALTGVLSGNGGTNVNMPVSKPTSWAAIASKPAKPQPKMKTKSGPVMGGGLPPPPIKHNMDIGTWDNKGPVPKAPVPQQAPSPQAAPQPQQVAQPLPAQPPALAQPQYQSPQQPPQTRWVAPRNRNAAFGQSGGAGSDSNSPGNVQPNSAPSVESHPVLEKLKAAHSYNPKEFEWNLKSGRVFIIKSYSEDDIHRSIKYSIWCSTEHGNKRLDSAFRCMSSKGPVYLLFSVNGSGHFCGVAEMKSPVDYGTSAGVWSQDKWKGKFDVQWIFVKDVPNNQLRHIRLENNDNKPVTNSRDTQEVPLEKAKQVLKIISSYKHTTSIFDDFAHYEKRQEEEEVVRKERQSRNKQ

[2] = target: T2, FUS (recombinant, His-tagged) (human) (UniProt P35637); assay: EMSA; settings: 250 nM RNA, 0-7.5 uM FUS (Methods: 7.0); m6A at positions 3, 9, 15, 22; EMSA: 50 mM Tris-HCl pH 7.5, 100 mM KCl, 2 mM MgCl2, 100 mM beta-mercaptoethanol, 0.1 mg/ml BSA, 30 min RT, 6% native gel in TBE; recombinant protein; protein details: His; label: 5' Cy5, 3' biotin-TEG
T2 sequence (looked up, limits assumed): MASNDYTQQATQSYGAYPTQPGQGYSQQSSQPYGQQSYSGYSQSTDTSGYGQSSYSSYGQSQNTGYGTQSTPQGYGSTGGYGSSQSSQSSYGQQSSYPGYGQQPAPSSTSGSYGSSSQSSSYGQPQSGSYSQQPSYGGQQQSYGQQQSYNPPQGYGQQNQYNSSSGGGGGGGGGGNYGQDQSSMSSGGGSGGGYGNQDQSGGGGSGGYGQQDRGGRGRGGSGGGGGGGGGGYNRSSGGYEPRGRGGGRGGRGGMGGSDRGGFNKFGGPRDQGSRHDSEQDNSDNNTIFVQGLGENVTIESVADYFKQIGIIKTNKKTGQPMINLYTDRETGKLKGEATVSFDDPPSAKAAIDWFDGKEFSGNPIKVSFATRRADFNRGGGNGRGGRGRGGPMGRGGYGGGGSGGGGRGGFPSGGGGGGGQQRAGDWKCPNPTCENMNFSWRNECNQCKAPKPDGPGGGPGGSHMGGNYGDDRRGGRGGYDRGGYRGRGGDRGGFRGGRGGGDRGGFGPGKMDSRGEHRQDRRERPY

YTHDF1-GFP (human) = target: T3, YTHDF1-GFP (human) (UniProt Q9BYJ9); assay: confocal nanoscanning (CONA), bead pull-down; settings: HeLa lysate, CONA: lysate in 1% Triton X-100/PBS, beads washed in 20 mM Hepes pH 7.5, 0.3 M NaCl, 0.01% Triton X-100, 5 mM MgCl2, 2 h RT, protein in a lysate after overexpression, protein details: GFP, label: 5' Cy5, 3' biotin-TEG
T3 sequence (looked up, limits assumed): T1 sequence (looked up, limits assumed)

GFP-FUS = target: T4, GFP-FUS (UniProt P35637); assay: confocal nanoscanning (CONA), bead pull-down; settings: HeLa lysate, CONA: lysate in 1% Triton X-100/PBS, beads washed in 20 mM Hepes pH 7.5, 0.3 M NaCl, 0.01% Triton X-100, 5 mM MgCl2, 2 h RT, protein in a lysate after overexpression, protein details: GFP, label: 5' Cy5, 3' biotin-TEG
T4 sequence (looked up, limits assumed): T2 sequence (looked up, limits assumed)

Sequence | binding result [1] | binding result [2] | binding result (YTHDF1-GFP (human); positive control, m6A at positions 3, 9, 15, 22) | binding result (GFP-FUS; m6A at positions 3, 9, 15, 22) | binding result (YTHDF1-GFP (human); differs significantly from m6A RNA) | binding result (GFP-FUS)
GGACUCGGACUUGGACUCUGGACUUUG [4xDRACH-m6A] | binds | binds more weakly | binds | binds more weakly | – | –
GGACUCGGACUUGGACUCUGGACUUUG [4xDRACH] | – | – | – | – | binds more weakly | binds

Reference: publication PMC12285722, “M6A-dependent RNA condensation underlies FUS autoregulation and can be harnessed for ALS therapy development”
